Data: PMC2912280

Protein sequences, listed by entry. Tags and fused reporters are not part of them.
UniProt P40763, whole entry: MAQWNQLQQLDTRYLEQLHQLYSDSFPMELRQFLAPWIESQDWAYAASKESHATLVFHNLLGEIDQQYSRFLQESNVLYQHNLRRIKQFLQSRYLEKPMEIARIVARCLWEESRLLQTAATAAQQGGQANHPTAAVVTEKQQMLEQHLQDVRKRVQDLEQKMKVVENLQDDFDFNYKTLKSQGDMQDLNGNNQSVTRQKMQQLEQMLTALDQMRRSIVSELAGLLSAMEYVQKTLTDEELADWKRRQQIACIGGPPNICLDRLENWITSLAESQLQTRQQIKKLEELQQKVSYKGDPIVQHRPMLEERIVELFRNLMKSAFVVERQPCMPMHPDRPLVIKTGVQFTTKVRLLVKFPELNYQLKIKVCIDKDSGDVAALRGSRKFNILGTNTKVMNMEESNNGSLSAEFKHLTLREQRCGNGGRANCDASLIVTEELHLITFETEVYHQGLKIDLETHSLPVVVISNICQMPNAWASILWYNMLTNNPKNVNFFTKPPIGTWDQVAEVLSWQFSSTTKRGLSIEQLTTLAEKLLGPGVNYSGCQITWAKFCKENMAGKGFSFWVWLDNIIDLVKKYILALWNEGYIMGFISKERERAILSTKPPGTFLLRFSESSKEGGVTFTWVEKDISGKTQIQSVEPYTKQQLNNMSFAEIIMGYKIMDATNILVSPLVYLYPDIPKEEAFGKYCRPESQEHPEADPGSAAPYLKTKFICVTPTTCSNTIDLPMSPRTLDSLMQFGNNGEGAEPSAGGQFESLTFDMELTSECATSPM

Columns and labels:
[1] = target: Stat3 (MM1 cell nuclear extract, IL-6 stimulated + tyrosine-phosphorylated) (UniProt P40763); assay: EMSA with antibody interference and cold competition; conditions: IL-6 stimulated MM1 extract; 2 ug nuclear extract with biotin probe in binding buffer (Panomics Gel-Shift Kit; composition, salt and pH not given), 30 min on ice; 5% polyacrylamide TBE gel; protein in an extract; label: biotin
[2] = target: Stat3 (MM1 cell nuclear extract, IL-6 stimulated + tyrosine-phosphorylated) (UniProt P40763); assay: EMSA; conditions: IL-6 stimulated MM1 extract, no nuclear protein bound; 2 ug nuclear extract with biotin probe in binding buffer (Panomics Gel-Shift Kit; composition, salt and pH not given), 30 min on ice; 5% polyacrylamide TBE gel; protein in an extract; label: biotin
[3] = target: Stat3 (MM1 cell nuclear extract, IL-6 stimulated + tyrosine-phosphorylated) (UniProt P40763); assay: EMSA with cold competition; conditions: IL-6 stimulated MM1 extract, Stat3 antibody not reported for this probe; 2 ug nuclear extract with biotin probe in binding buffer (Panomics Gel-Shift Kit; composition, salt and pH not given), 30 min on ice; 5% polyacrylamide TBE gel; protein in an extract; label: biotin

| Sequence | binding result [2] | other results |
| --- | --- | --- |
| CCGCGACCGCTTTCTGCGAAGTCGGGGAGG (double strand) [ROR1 promoter probe 1 (-143 to -114)] | – | binding result [1]: binds |
| GGCTGGAGAGTTGGTGGAAAGTGACAAGTT (double strand) [ROR1 promoter probe 2 (-30 to -1)] | no binding | – |
| TCTCTCAACTCTTGGGTCCAAGAAGAAAGC (double strand) [ROR1 promoter probe 3 (-429 to -400)] | – | binding result [3]: binds |
| TGACTCTTTTTAGTGTCAATGGAGGATTTG (double strand) [ROR1 promoter probe 4 (-1053 to -1024)] | no binding | – |

For at least one entry, the source does not settle the construct or the ends of the probe. Where cells or extracts were used, other partners may take part. For some of these results: No signal at the amounts used counts as a negative. For some of these results: At least one verdict was read from the data and is not stated in words by the source.
